{"source": "patent EP1579851A2", "about": "“Rapid release encapsulated bioactive agents for inducing or potentiating an immune response and methods of use thereof” (CORIXA CORPORATION, priority 1997, dated 1999)", "system": "BMA3.1 macrophage cells", "assay": "In vitro presentation of encapsulated antigen: CTL recognition (51Cr release) of pulsed macrophages by an Ova specific CTL line", "type": "cell-based, C57BL/6", "settings": "BMA3.1 cells incubated 4 hr at 37°C; about 30 µg of Ova; established Ova specific CTL line; Fig. 1", "note": "Not every detail of the peptide structures is certain; ends, links or a residue may be inferred.", "data": [{"smiles": "CC[C@H](C)[C@H](NC(=O)[C@@H](NC(=O)[C@@H](N)CO)[C@@H](C)CC)C(=O)N[C@@H](CC(N)=O)C(=O)N[C@@H](Cc1ccccc1)C(=O)N[C@@H](CCC(=O)O)C(=O)N[C@@H](CCCCN)C(=O)N[C@@H](CC(C)C)C(=O)O", "note": "[Ova 257-264 peptide, SIINFEKL]", "values": [{"measurement": "CTL recognition of BMA3.1 cells pre-incubated with antigen", "value": "Specific CTL recognition was observed"}]}]}
